This experiment relates to A549. In words: MTT assay IC50. The format is cell-based, human. As to the method:
Six non-small cell lung cancer (NSCLC) cell lines were treated in culture with [^14C]carboplatin. Carboplatin-DNA monoadduct levels over time were determined by measuring ^14C content in genomic DNA with accelerator mass spectrometry (AMS). Cellular sensitivity to carboplatin and cisplatin was analyzed by the MTT assay (Henderson et al., International Journal of Cancer 2011).
Human NSCLC cell lines H23, H460, H727, HCC827, H1975, and A549 were purchased from ATCC and were cultured with the recommended medium. The MTT assay was performed as previously reported to determine the drug concentration required to inhibit cell growth by 50% (IC50) of cisplatin and carboplatin. [^14C]Carboplatin (at 53 mCi/mmol) was mixed with unlabeled carboplatin to achieve the specific activities required for microdoses and therapeutic doses. Table 1 lists the six NSCLC cell lines and summarizes their IC50 characteristics, induced carboplatin-DNA monoadducts when treated with [^14C]carboplatin, and p and r^2 values for correlation analysis to the IC50 concentrations.

As for `N.N.[Cl][Pt][Cl]` [cisplatin], the IC50 is 26.3 µM.
